PubChem BioAssay AID1224828 – NIAID, 2016
Assay: 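Find genes required for NF-kappaB p65 moving into the nucleus after LPS in mouse macrophages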 (primary screen). System: mouse RAW264.7 G9 macrophage reporter cells (GFP-p65, Tnf promoter-mCherry). Reagent: siRNA pool against mouse genes, 100 nM. Time to read-out: 2 days siRNA transfection, then 40 min LPS before fixation. Conditions: LPS (Salmonella minnesota R595) at 10 ng/ml. Measured: 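Microscopy ratio of nuclear to perinuclear-ring GFP-p65 signal, scaled to the plate median; gene score is the average of two replicate robust z-scores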. Scale: p65 translocation robust z-score: higher = more nuclear NF-kappaB p65 after LPS than the plate median; nuclear/cytoplasmic p65 ratio: higher = more nuclear NF-kappaB p65. Rule for the call: 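Active if robust z is above 3.3 (negative regulators) or below -1.56, the Tlr4 control median (positive regulators); activity score 50 or more; control wells not called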. Calls: active = hit (p65 shift raised or lowered); inactive = no clear change.
The deposit covers about 17,000 reagents; shown is a random part of them. 762 of all reagents (4.5%) count as active. 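Active calls include both raised and lowered p65 entry, mostly lowered; wells with fewer than 50 cells lack a z-score.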 Raw values are not corrected between plates.

{"Target gene":"Coa4 (GeneID 68185)","p65 translocation robust z-score":-0.46,"nuclear/cytoplasmic p65 ratio, rep 1":1.28,"nuclear/cytoplasmic p65 ratio, rep 2":1.42,"low cell count flag":"enough cells to score","activity call":"inactive"}
{"Target gene":"Arid4a (GeneID 238247)","p65 translocation robust z-score":0.34,"nuclear/cytoplasmic p65 ratio, rep 1":1.66,"nuclear/cytoplasmic p65 ratio, rep 2":1.68,"low cell count flag":"enough cells to score","activity call":"inactive"}
{"Target gene":"Garre1 (GeneID 233103)","p65 translocation robust z-score":-0.04,"nuclear/cytoplasmic p65 ratio, rep 1":1.26,"nuclear/cytoplasmic p65 ratio, rep 2":1.3,"low cell count flag":"enough cells to score","activity call":"inactive"}
{"Target gene":"Xrcc3 (GeneID 74335)","p65 translocation robust z-score":0.03,"nuclear/cytoplasmic p65 ratio, rep 1":1.56,"nuclear/cytoplasmic p65 ratio, rep 2":1.47,"low cell count flag":"enough cells to score","activity call":"inactive"}
{"Target gene":"Gm4836 (GeneID 22526)","p65 translocation robust z-score":-0.91,"nuclear/cytoplasmic p65 ratio, rep 1":1.23,"nuclear/cytoplasmic p65 ratio, rep 2":1.2,"low cell count flag":"enough cells to score","activity call":"inactive"}
{"Target gene":"Or1j16 (GeneID 258947)","p65 translocation robust z-score":-0.74,"nuclear/cytoplasmic p65 ratio, rep 1":1.55,"nuclear/cytoplasmic p65 ratio, rep 2":1.28,"low cell count flag":"enough cells to score","activity call":"inactive"}
{"Target gene":"4930519G04Rik (GeneID 67593)","nuclear/cytoplasmic p65 ratio, rep 1":1.21,"nuclear/cytoplasmic p65 ratio, rep 2":1.37,"low cell count flag":"fewer than 50 cells per well; well left out of scoring","activity call":"inactive"}
{"Target gene":"Chchd6 (GeneID 66098)","p65 translocation robust z-score":0.23,"nuclear/cytoplasmic p65 ratio, rep 1":1.47,"nuclear/cytoplasmic p65 ratio, rep 2":1.58,"low cell count flag":"enough cells to score","activity call":"inactive"}
{"Target gene":"Ctdspl (GeneID 69274)","p65 translocation robust z-score":-1.38,"nuclear/cytoplasmic p65 ratio, rep 1":1.34,"nuclear/cytoplasmic p65 ratio, rep 2":1.59,"low cell count flag":"enough cells to score","activity call":"inactive"}
{"Target gene":"Gcnt1 (GeneID 14537)","p65 translocation robust z-score":-1.56,"nuclear/cytoplasmic p65 ratio, rep 1":1.35,"nuclear/cytoplasmic p65 ratio, rep 2":1.26,"low cell count flag":"enough cells to score","activity call":"inactive"}
{"Target gene":"Sars2 (GeneID 71984)","p65 translocation robust z-score":0.81,"nuclear/cytoplasmic p65 ratio, rep 1":1.55,"nuclear/cytoplasmic p65 ratio, rep 2":1.29,"low cell count flag":"enough cells to score","activity call":"inactive"}
{"Target gene":"1810009N02Rik (GeneID 69099)","p65 translocation robust z-score":0.23,"nuclear/cytoplasmic p65 ratio, rep 1":1.33,"nuclear/cytoplasmic p65 ratio, rep 2":1.54,"low cell count flag":"enough cells to score","activity call":"inactive"}
{"Target gene":"1700012B09Rik (GeneID 69325)","p65 translocation robust z-score":-0.58,"nuclear/cytoplasmic p65 ratio, rep 1":1.32,"nuclear/cytoplasmic p65 ratio, rep 2":1.14,"low cell count flag":"enough cells to score","activity call":"inactive"}
{"Target gene":"Tas2r113 (GeneID 387345)","nuclear/cytoplasmic p65 ratio, rep 1":1.33,"nuclear/cytoplasmic p65 ratio, rep 2":1.23,"low cell count flag":"fewer than 50 cells per well; well left out of scoring","activity call":"inactive"}

Reprinted from above, 2 entries:
{"Target gene":"4930519G04Rik (GeneID 67593)","nuclear/cytoplasmic p65 ratio, rep 1":1.21,"nuclear/cytoplasmic p65 ratio, rep 2":1.37,"low cell count flag":"fewer than 50 cells per well; well left out of scoring","activity call":"inactive"}
{"Target gene":"Chchd6 (GeneID 66098)","p65 translocation robust z-score":0.23,"nuclear/cytoplasmic p65 ratio, rep 1":1.47,"nuclear/cytoplasmic p65 ratio, rep 2":1.58,"low cell count flag":"enough cells to score","activity call":"inactive"}

The list goes on.
{"Target gene":"Cldn16 (GeneID 114141)","p65 translocation robust z-score":-0.63,"nuclear/cytoplasmic p65 ratio, rep 1":1.43,"nuclear/cytoplasmic p65 ratio, rep 2":1.3,"low cell count flag":"enough cells to score","activity call":"inactive"}
{"Target gene":"Rnase2a (GeneID 93726)","nuclear/cytoplasmic p65 ratio, rep 1":0.956,"nuclear/cytoplasmic p65 ratio, rep 2":1.17,"low cell count flag":"fewer than 50 cells per well; well left out of scoring","activity call":"inactive"}
{"Target gene":"Or4a72 (GeneID 258784)","p65 translocation robust z-score":1.48,"nuclear/cytoplasmic p65 ratio, rep 1":1.8,"nuclear/cytoplasmic p65 ratio, rep 2":1.64,"low cell count flag":"enough cells to score","activity call":"inactive"}
{"Target gene":"Krtap1-5 (GeneID 69664)","nuclear/cytoplasmic p65 ratio, rep 1":2.28,"nuclear/cytoplasmic p65 ratio, rep 2":1.18,"low cell count flag":"fewer than 50 cells per well; well left out of scoring","activity call":"inactive"}
{"Target gene":"Kdm8 (GeneID 77035)","nuclear/cytoplasmic p65 ratio, rep 1":1.35,"nuclear/cytoplasmic p65 ratio, rep 2":1.19,"low cell count flag":"fewer than 50 cells per well; well left out of scoring","activity call":"inactive"}
{"Target gene":"Ufsp2 (GeneID 192169)","p65 translocation robust z-score":1.05,"nuclear/cytoplasmic p65 ratio, rep 1":1.43,"nuclear/cytoplasmic p65 ratio, rep 2":1.5,"low cell count flag":"enough cells to score","activity call":"inactive"}
{"Target gene":"Pnrc2 (GeneID 52830)","p65 translocation robust z-score":-0.62,"nuclear/cytoplasmic p65 ratio, rep 1":1.42,"nuclear/cytoplasmic p65 ratio, rep 2":1.32,"low cell count flag":"enough cells to score","activity call":"inactive"}
{"Target gene":"Lsm3 (GeneID 67678)","p65 translocation robust z-score":-0.63,"nuclear/cytoplasmic p65 ratio, rep 1":1.57,"nuclear/cytoplasmic p65 ratio, rep 2":1.5,"low cell count flag":"enough cells to score","activity call":"inactive"}
{"Target gene":"Tex13b (GeneID 83555)","p65 translocation robust z-score":1.12,"nuclear/cytoplasmic p65 ratio, rep 1":1.34,"nuclear/cytoplasmic p65 ratio, rep 2":1.31,"low cell count flag":"enough cells to score","activity call":"inactive"}
{"Target gene":"Coq4 (GeneID 227683)","p65 translocation robust z-score":-1.17,"nuclear/cytoplasmic p65 ratio, rep 1":1.37,"nuclear/cytoplasmic p65 ratio, rep 2":1.55,"low cell count flag":"enough cells to score","activity call":"inactive"}
{"Target gene":"Cdc34 (GeneID 216150)","p65 translocation robust z-score":-0.13,"nuclear/cytoplasmic p65 ratio, rep 1":1.43,"nuclear/cytoplasmic p65 ratio, rep 2":1.38,"low cell count flag":"enough cells to score","activity call":"inactive"}
{"Target gene":"Mettl4 (GeneID 76781)","p65 translocation robust z-score":-0.57,"nuclear/cytoplasmic p65 ratio, rep 1":1.31,"nuclear/cytoplasmic p65 ratio, rep 2":1.44,"low cell count flag":"enough cells to score","activity call":"inactive"}
{"Target gene":"Spata24 (GeneID 71242)","nuclear/cytoplasmic p65 ratio, rep 1":1.47,"nuclear/cytoplasmic p65 ratio, rep 2":1.6,"low cell count flag":"fewer than 50 cells per well; well left out of scoring","activity call":"inactive"}
